Source: paper PMC4374960 (2015)
These are yes or no findings as the source states them, for the method shown. Some binding calls cover weakened binding; strength is not graded here.

T1: CarG (in pUT18C) (Myxococcus xanthus) (UniProt Q50888)
T1 sequence: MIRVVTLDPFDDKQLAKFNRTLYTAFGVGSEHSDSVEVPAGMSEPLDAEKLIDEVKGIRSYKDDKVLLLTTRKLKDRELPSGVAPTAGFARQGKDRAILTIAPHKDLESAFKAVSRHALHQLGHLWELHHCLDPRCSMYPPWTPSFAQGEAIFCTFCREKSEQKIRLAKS

T2: Mxβ_(19–148) K124A (in pUT18C) (Myxococcus xanthus) (UniProt Q1D7U3)
T2 sequence: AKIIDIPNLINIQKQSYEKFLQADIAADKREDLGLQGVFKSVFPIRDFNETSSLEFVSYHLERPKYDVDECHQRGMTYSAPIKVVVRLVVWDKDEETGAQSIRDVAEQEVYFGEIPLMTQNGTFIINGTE

T3: Mxβ_(19–148) D122A (in pUT18C) (Myxococcus xanthus) (UniProt Q1D7U3)
T3 sequence: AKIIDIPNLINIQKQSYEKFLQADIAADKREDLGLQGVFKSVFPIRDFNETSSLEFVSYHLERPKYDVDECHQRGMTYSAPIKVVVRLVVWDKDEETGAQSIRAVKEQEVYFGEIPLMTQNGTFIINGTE

T4: Mxβ_(19–148), M. xanthus RNA polymerase β subunit fragment spanning residues 19 to 148 (in pUT18C) (Myxococcus xanthus) (UniProt Q1D7U3)
T4 sequence: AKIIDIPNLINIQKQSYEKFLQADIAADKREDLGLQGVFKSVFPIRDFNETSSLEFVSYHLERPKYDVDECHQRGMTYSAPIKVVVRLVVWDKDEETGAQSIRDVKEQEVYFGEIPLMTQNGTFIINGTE


Assays:
[1] = target: T1, CarG (in pUT18C) (Myxococcus xanthus); assay: two-hybrid; E. coli BACTH in BTH101 (cya-); CarD constructs in pKT25, partner in pUT18C or pUT18; spot assay (Fig. 4B); for Fig. 6B and 6E the legend does not tell the read-out
[2] = target: T2, Mxβ_(19–148) K124A (in pUT18C) (Myxococcus xanthus); assay: two-hybrid; E. coli BACTH (T25/T18 fragments of B. pertussis adenylate cyclase) in BTH101 (cya-); CarD constructs in pKT25, Mxβ19-148 or CarG in pUT18C; reporter lacZ β-Gal activity of liquid cultures, mean of three independent experiments (Fig. 2, 4C, 4D)
[3] = target: T3, Mxβ_(19–148) D122A (in pUT18C) (Myxococcus xanthus); assay: as above
[4] = target: T4, Mxβ_(19–148), M. xanthus RNA polymerase β subunit fragment spanning residues 19 to 148 (in pUT18C) (Myxococcus xanthus); assay: as above
[5] = target: T4, Mxβ_(19–148), M. xanthus RNA polymerase β subunit fragment spanning residues 19 to 148 (in pUT18C) (Myxococcus xanthus); assay: two-hybrid; E. coli BACTH in BTH101 (cya-); CarD constructs in pKT25, partner in pUT18C or pUT18; spot assay (Fig. 4B); for Fig. 6B and 6E the legend does not tell the read-out
[6] = target: T1, CarG (in pUT18C) (Myxococcus xanthus); assay: two-hybrid; E. coli BACTH (T25/T18 fragments of B. pertussis adenylate cyclase) in BTH101 (cya-); CarD constructs in pKT25, Mxβ19-148 or CarG in pUT18C; reporter lacZ β-Gal activity of liquid cultures, mean of three independent experiments (Fig. 2, 4C, 4D)

binding [1]	binding [5]	Binder	further results
binds	–	CarDNt, the 179-residue N-terminal domain of Myxococcus xanthus CarD (in pKT25) (domain or fragment, UniProt Q50887 1-179) MPEGSASLQLAVGDRVVYPNQGVCRVSAIDVKEVAGQKLTFVTMRREEDGAVVMVPEGKVLAIGVRKVASAEDVEAIFTFLRSDSDKADLDWKQRARTNLDRMTQGGIMGLAEVVKGLQVLSELRPLPTKERELYDNARHLLVTEVAAALGTAEVNAEDAIDIVLFPPGRERPKRTAAE	binding [2]: binds; binding [3]: binds; binding [4]: binds
–	binds	CarDNt K93A/R95A/R97A (in pKT25) (domain or fragment, UniProt Q50887 1-179) MPEGSASLQLAVGDRVVYPNQGVCRVSAIDVKEVAGQKLTFVTMRREEDGAVVMVPEGKVLAIGVRKVASAEDVEAIFTFLRSDSDKADLDWAQAAATNLDRMTQGGIMGLAEVVKGLQVLSELRPLPTKERELYDNARHLLVTEVAAALGTAEVNAEDAIDIVLFPPGRERPKRTAAE	–
–	binds	CarDNt W92 mutant (in pKT25) (domain or fragment, UniProt Q50887 1-179) MPEGSASLQLAVGDRVVYPNQGVCRVSAIDVKEVAGQKLTFVTMRREEDGAVVMVPEGKVLAIGVRKVASAEDVEAIFTFLRSDSDKADLDAKQRARTNLDRMTQGGIMGLAEVVKGLQVLSELRPLPTKERELYDNARHLLVTEVAAALGTAEVNAEDAIDIVLFPPGRERPKRTAAE	–
binds	–	CarDNt M54A (in pKT25) (domain or fragment, UniProt Q50887 1-179) MPEGSASLQLAVGDRVVYPNQGVCRVSAIDVKEVAGQKLTFVTMRREEDGAVVAVPEGKVLAIGVRKVASAEDVEAIFTFLRSDSDKADLDWKQRARTNLDRMTQGGIMGLAEVVKGLQVLSELRPLPTKERELYDNARHLLVTEVAAALGTAEVNAEDAIDIVLFPPGRERPKRTAAE	–
–	binds	CarDNt T129 mutant (in pKT25) (domain or fragment, UniProt Q50887 1-179) MPEGSASLQLAVGDRVVYPNQGVCRVSAIDVKEVAGQKLTFVTMRREEDGAVVMVPEGKVLAIGVRKVASAEDVEAIFTFLRSDSDKADLDWKQRARTNLDRMTQGGIMGLAEVVKGLQVLSELRPLPAKERELYDNARHLLVTEVAAALGTAEVNAEDAIDIVLFPPGRERPKRTAAE	–

Continued, binder first:

Binder	binding [1]	binding [5]	further results
CarDNt F41A (in pKT25) (domain or fragment, UniProt Q50887 1-179) MPEGSASLQLAVGDRVVYPNQGVCRVSAIDVKEVAGQKLTAVTMRREEDGAVVMVPEGKVLAIGVRKVASAEDVEAIFTFLRSDSDKADLDWKQRARTNLDRMTQGGIMGLAEVVKGLQVLSELRPLPTKERELYDNARHLLVTEVAAALGTAEVNAEDAIDIVLFPPGRERPKRTAAE	binds	–	–
CarDNt P56A (in pKT25) (domain or fragment, UniProt Q50887 1-179) MPEGSASLQLAVGDRVVYPNQGVCRVSAIDVKEVAGQKLTFVTMRREEDGAVVMVAEGKVLAIGVRKVASAEDVEAIFTFLRSDSDKADLDWKQRARTNLDRMTQGGIMGLAEVVKGLQVLSELRPLPTKERELYDNARHLLVTEVAAALGTAEVNAEDAIDIVLFPPGRERPKRTAAE	binds	–	–
CarDNt L100 mutant (in pKT25) (domain or fragment, UniProt Q50887 1-179) MPEGSASLQLAVGDRVVYPNQGVCRVSAIDVKEVAGQKLTFVTMRREEDGAVVMVPEGKVLAIGVRKVASAEDVEAIFTFLRSDSDKADLDWKQRARTNADRMTQGGIMGLAEVVKGLQVLSELRPLPTKERELYDNARHLLVTEVAAALGTAEVNAEDAIDIVLFPPGRERPKRTAAE	–	binds	–
CarDNt K130A/R132A (in pKT25) (domain or fragment, UniProt Q50887 1-179) MPEGSASLQLAVGDRVVYPNQGVCRVSAIDVKEVAGQKLTFVTMRREEDGAVVMVPEGKVLAIGVRKVASAEDVEAIFTFLRSDSDKADLDWKQRARTNLDRMTQGGIMGLAEVVKGLQVLSELRPLPTAEAELYDNARHLLVTEVAAALGTAEVNAEDAIDIVLFPPGRERPKRTAAE	–	binds	–
CarD_(61–179), C-terminal part of CarDNt (in pKT25) (domain or fragment, UniProt Q50887 61-179) LAIGVRKVASAEDVEAIFTFLRSDSDKADLDWKQRARTNLDRMTQGGIMGLAEVVKGLQVLSELRPLPTKERELYDNARHLLVTEVAAALGTAEVNAEDAIDIVLFPPGRERPKRTAAE	–	–	binding [6]: binds; binding [4]: no binding
CarD_(1–72), N-terminal module of CarDNt (in pKT25) (domain or fragment, UniProt Q50887 1-72) MPEGSASLQLAVGDRVVYPNQGVCRVSAIDVKEVAGQKLTFVTMRREEDGAVVMVPEGKVLAIGVRKVASAE	–	–	binding [6]: no binding; binding [4]: binds
